These are yes or no findings as the source states them, for the method shown. Binding seen in cells or lysates may run through a third protein. Some entries that bind do so weakly or less than the wild type.
Target: KAT6A (human (endogenous in PDLSCs)) (UniProt Q92794)
Test: co-IP; endogenous KAT6A and YAP in PDLSC lysate, protein A-Sepharose beads, overnight 4 °C, control IgG as negative control, western blot; also after mechanical force loading (binding increased)

Sequences of proteins named here, by UniProt entry; tags and fusion partners are left off.
UniProt Q92794: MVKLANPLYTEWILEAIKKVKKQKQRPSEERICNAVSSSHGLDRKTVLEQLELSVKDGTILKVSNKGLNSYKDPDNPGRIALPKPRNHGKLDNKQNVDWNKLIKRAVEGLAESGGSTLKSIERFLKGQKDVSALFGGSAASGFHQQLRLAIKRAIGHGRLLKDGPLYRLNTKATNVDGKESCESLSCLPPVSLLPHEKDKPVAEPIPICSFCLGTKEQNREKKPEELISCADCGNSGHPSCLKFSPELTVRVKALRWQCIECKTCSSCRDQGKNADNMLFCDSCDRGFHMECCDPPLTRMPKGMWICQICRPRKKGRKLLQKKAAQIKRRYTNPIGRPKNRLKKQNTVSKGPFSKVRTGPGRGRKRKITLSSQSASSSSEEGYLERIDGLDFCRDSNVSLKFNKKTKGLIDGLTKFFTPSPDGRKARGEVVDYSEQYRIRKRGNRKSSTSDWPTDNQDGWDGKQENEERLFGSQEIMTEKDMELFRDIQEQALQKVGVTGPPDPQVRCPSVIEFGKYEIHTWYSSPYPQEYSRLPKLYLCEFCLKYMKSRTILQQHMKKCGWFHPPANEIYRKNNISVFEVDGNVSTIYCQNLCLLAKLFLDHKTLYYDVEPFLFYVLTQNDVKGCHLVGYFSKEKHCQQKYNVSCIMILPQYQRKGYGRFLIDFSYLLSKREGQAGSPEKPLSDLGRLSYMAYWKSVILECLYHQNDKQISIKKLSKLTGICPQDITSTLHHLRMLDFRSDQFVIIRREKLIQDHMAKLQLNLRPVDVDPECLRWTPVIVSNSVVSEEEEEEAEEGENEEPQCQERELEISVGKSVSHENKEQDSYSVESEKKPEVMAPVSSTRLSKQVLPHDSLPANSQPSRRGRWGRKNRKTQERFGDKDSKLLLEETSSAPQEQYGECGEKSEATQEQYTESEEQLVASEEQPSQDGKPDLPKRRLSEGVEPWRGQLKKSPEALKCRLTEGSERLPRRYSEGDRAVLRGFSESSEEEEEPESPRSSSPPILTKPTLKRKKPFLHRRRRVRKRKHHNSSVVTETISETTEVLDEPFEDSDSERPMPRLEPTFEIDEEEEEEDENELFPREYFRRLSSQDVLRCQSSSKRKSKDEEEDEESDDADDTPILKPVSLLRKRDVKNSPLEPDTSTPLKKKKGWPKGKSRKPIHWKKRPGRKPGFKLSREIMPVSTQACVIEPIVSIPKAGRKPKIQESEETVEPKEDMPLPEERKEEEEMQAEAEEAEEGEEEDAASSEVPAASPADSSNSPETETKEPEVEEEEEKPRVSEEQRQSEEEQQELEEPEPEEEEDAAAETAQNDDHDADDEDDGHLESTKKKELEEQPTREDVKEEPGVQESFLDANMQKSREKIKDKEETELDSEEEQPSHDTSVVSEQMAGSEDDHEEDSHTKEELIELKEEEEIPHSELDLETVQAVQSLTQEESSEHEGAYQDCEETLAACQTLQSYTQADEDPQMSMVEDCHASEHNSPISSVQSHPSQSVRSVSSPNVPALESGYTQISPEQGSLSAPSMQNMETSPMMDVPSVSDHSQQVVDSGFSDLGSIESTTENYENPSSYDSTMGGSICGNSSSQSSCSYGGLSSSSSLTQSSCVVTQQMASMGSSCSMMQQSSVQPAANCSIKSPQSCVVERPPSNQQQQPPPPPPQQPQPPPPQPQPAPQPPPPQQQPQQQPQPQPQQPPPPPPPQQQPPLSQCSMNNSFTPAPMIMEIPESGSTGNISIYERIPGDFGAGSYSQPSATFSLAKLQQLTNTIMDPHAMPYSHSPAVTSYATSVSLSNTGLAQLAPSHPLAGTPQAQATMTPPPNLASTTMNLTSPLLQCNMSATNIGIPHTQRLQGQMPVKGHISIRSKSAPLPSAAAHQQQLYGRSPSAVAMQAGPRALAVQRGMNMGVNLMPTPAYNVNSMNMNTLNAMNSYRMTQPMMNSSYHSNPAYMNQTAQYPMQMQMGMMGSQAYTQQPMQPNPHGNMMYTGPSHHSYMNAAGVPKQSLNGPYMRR
UniProt P46937: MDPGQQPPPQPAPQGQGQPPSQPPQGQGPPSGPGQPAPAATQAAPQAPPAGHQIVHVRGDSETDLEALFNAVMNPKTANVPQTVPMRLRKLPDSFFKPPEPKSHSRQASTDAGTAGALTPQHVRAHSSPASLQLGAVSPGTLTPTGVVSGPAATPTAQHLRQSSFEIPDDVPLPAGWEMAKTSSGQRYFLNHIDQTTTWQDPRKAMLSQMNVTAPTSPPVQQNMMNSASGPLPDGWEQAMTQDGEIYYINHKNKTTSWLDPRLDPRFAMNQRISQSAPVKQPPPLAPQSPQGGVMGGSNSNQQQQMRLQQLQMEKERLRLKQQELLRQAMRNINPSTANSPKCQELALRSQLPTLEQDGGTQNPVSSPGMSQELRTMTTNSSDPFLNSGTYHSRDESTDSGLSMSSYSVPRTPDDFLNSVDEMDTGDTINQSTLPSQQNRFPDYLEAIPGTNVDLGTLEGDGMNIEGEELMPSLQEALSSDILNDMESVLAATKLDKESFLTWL

binding: binds
Substance: YAP (from UniProt P46937 1-504)

Reference: publication PMC11317454
